These are yes or no findings as the source states them, for the method shown. Binding seen in cells or lysates may run through a third protein. These calls come from enrichment with a bait or labelling near it, and not all partners need be listed. Where a sequence is shown, tags or fusion partners need not be part of it.
T1: pAtPNP-A, N-terminally biotinylated AtPNP-A(33–66) peptide containing the active region of AtPNP-A (Arabidopsis thaliana) (UniProt Q9ZV52)
T1 sequence (peptide, biotin on the N-terminus; two cysteine residues forming a disulfide bond): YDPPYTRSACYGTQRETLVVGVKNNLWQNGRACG

Sequences of proteins named here, by UniProt entry; tags and fusion partners are left off. A change or cut given only in a name is not applied to a line headed by its entry. Residues count along the entry.
UniProt P29511: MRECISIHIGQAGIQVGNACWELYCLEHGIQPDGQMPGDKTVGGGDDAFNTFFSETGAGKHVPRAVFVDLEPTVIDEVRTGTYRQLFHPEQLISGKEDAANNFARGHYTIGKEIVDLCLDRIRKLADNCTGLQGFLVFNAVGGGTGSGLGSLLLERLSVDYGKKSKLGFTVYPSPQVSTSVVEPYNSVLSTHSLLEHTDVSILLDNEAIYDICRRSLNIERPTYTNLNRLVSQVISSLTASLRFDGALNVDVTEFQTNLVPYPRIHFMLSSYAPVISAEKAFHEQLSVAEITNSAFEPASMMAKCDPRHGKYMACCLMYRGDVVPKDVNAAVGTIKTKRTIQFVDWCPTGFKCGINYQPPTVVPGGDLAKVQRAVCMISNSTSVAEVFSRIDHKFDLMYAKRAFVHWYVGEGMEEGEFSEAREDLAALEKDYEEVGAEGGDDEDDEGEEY
UniProt P56757: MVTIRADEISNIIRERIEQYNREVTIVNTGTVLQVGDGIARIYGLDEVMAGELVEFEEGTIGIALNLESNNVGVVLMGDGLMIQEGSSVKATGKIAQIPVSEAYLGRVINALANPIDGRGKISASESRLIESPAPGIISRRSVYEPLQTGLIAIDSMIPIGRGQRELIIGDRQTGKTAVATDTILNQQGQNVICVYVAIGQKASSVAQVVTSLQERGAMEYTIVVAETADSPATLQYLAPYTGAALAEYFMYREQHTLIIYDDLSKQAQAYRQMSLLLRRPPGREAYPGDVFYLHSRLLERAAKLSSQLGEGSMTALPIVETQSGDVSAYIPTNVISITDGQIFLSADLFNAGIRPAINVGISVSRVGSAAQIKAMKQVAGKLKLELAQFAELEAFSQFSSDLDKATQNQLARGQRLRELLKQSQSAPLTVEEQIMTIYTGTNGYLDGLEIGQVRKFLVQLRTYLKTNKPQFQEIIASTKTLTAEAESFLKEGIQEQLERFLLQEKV
UniProt Q9SY97, residues 40-273: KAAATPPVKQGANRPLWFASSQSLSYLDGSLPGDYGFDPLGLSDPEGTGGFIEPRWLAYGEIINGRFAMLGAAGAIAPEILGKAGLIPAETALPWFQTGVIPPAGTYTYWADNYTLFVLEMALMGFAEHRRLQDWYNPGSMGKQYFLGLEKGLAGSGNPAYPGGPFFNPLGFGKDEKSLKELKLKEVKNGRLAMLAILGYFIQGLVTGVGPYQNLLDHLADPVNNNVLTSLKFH
UniProt P41376: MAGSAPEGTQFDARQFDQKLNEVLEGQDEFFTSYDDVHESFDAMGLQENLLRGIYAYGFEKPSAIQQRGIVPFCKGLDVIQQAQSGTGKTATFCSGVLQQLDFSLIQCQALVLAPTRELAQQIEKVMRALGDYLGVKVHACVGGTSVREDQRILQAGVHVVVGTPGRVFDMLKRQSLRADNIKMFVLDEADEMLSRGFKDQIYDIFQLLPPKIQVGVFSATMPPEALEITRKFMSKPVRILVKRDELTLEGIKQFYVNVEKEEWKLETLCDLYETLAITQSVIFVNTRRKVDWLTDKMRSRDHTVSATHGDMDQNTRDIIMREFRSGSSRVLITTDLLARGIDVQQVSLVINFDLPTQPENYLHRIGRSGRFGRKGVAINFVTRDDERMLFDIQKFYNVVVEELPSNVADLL
UniProt Q9FI56, residues 39-929: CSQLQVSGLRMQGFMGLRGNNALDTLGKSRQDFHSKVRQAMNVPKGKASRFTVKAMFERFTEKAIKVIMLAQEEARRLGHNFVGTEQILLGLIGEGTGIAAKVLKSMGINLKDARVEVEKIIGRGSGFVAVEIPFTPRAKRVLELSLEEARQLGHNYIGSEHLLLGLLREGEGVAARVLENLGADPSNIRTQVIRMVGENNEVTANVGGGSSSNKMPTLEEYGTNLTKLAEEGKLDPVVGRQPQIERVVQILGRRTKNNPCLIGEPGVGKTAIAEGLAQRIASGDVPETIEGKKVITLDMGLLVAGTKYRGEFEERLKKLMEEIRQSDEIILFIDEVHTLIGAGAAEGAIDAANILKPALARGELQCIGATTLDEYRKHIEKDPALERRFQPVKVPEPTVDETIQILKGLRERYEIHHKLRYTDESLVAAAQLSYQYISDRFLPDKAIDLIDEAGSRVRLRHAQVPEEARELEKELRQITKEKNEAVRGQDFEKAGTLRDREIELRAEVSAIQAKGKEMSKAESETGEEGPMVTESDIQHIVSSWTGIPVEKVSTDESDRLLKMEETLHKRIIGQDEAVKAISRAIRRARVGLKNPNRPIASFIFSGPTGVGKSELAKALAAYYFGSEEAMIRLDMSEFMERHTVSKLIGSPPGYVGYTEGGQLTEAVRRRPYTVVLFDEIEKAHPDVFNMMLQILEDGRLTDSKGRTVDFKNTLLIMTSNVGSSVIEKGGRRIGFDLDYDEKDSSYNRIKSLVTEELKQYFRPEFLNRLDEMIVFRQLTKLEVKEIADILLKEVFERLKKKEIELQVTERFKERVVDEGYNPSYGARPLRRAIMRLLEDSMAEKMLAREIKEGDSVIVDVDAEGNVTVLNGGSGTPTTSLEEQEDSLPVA
UniProt P21240, residues 55-600: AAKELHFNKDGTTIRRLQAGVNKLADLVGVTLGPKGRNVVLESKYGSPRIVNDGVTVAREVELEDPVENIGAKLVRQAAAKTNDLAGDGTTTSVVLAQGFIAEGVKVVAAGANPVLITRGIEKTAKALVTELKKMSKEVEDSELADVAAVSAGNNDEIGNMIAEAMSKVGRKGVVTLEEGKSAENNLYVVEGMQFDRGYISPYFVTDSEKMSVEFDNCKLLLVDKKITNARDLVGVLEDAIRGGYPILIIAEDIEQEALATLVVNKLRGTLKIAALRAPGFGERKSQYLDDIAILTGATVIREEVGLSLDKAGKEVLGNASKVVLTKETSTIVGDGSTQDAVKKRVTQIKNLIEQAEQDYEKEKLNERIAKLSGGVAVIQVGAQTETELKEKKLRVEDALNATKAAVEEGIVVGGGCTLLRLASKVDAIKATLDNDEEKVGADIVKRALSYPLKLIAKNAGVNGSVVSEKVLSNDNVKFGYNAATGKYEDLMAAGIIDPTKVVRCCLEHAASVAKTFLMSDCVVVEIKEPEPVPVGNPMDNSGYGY
UniProt Q9S7N7, residues 61-160: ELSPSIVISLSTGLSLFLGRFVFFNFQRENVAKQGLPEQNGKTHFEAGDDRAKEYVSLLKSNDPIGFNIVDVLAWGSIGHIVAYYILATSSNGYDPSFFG
UniProt P31167, residues 71-381: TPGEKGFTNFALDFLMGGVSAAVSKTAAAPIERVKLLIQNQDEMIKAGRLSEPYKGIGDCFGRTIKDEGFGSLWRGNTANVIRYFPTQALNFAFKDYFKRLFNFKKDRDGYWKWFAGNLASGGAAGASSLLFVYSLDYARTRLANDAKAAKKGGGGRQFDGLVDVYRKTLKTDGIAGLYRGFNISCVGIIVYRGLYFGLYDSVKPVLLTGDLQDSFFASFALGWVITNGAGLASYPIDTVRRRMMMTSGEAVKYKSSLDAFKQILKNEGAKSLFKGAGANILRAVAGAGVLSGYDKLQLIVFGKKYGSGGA
UniProt Q9SHE8, residues 68-221: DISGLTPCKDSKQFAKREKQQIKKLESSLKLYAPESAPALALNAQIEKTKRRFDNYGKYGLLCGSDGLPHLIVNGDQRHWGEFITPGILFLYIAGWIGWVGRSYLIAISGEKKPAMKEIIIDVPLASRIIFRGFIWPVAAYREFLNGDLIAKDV
UniProt Q01667, residues 36-241: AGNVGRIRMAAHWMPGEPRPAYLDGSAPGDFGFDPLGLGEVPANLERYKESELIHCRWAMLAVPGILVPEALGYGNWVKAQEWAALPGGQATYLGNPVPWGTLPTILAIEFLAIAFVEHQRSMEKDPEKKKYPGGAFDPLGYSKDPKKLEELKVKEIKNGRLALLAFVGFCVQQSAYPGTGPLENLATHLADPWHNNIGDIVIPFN
UniProt P17745, residues 68-476: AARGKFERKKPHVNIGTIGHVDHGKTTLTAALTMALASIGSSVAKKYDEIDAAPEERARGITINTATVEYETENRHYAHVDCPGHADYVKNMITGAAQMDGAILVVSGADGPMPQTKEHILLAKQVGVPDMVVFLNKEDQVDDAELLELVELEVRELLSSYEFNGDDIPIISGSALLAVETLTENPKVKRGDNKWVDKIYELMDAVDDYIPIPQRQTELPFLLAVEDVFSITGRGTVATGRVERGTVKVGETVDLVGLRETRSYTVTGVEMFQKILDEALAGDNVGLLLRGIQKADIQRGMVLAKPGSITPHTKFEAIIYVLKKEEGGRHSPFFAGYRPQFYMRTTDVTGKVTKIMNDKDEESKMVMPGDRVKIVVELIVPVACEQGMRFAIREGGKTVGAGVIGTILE
UniProt P0DH99: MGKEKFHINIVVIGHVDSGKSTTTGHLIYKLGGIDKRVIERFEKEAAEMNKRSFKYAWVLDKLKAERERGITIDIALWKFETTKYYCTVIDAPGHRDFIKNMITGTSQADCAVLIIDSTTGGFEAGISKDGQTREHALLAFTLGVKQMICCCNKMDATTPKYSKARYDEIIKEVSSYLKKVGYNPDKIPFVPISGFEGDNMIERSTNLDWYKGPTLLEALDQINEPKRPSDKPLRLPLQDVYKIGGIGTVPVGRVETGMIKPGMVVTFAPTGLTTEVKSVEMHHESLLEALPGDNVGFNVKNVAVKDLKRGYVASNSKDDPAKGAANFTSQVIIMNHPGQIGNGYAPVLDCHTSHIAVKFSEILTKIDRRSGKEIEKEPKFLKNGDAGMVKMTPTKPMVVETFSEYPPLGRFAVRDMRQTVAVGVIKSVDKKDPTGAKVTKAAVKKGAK
UniProt Q9ZR03, residues 51-229: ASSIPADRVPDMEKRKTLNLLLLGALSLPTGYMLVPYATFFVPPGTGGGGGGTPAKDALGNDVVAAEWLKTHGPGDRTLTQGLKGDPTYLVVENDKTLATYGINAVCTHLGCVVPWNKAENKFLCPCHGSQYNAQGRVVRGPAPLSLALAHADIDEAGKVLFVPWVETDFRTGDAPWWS

B1: Cobalamin-independent synthase family protein (ATMS1) (enzyme, UniProt O50008 1-765)
chain: MASHIVGYPRMGPKRELKFALESFWDGKSTAEDLQKVSADLRSSIWKQMSAAGTKFIPSNTFAHYDQVLDTTAMLGAVPPRYGYTGGEIGLDVYFSMARGNASVPAMEMTKWFDTNYHYIVPELGPEVNFSYASHKAVNEYKEAKALGVDTVPVLVGPVSYLLLSKAAKGVDKSFELLSLLPKILPIYKEVITELKAAGATWIQLDEPVLVMDLEGQKLQAFTGAYAELESTLSGLNVLVETYFADIPAEAYKTLTSLKGVTAFGFDLVRGTKTLDLVKAGFPEGKYLFAGVVDGRNIWANDFAASLSTLQALEGIVGKDKLVVSTSCSLLHTAVDLINETKLDDEIKSWLAFAAQKVVEVNALAKALAGQKDEALFSANAAALASRRSSPRVTNEGVQKAAAALKGSDHRRATNVSARLDAQQKKLNLPILPTTTIGSFPQTVELRRVRREYKAKKVSEEDYVKAIKEEIKKVVDLQEELDIDVLVHGEPERNDMVEYFGEQLSGFAFTANGWVQSYGSRCVKPPVIYGDVSRPKAMTVFWSAMAQSMTSRPMKGMLTGPVTILNWSFVRNDQPRHETCYQIALAIKDEVEDLEKGGIGVIQIDEAALREGLPLRKSEHAFYLDWAVHSFRITNCGVQDSTQIHTHMCYSHFNDIIHSIIDMDADVITIENSRSDEKLLSVFREGVKYGAGIGPGVYDIHSPRIPSSEEIADRVNKMLAVLEQNILWVNPDCGLKTRKYTEVKPALKNMVDAAKLIRSQLASAK
B2: Carbonic anhydrase 2 (CA2) (enzyme, UniProt P42737 72-331)
chain: RMGNESYEDAIEALKKLLIEKDDLKDVAAAKVKKITAELQAASSSDSKSFDPVERIKEGFVTFKKEKYETNPALYGELAKGQSPKYMVFACSDSRVCPSHVLDFHPGDAFVVRNIANMVPPFDKVKYAGVGAAIEYAVLHLKVENIVVIGHSACGGIKGLMSFPLDGNNSTDFIEDWVKICLPAKSKVLAESESSAFEDQCGRCEREAVNVSLANLLTYPFVREGVVKGTLALKGGYYDFVNGSFELWELQFGISPVHSI
B3: Protochlorophyllide oxidoreductase B (PORB) (enzyme, UniProt P21218 67-401)
chain: QTAATSSPTVTKSVDGKKTLRKGNVVVTGASSGLGLATAKALAETGKWNVIMACRDFLKAERAAKSVGMPKDSYTVMHLDLASLDSVRQFVDNFRRTETPLDVLVCNAAVYFPTAKEPTYSAEGFELSVATNHLGHFLLARLLLDDLKKSDYPSKRLIIVGSITGNTNTLAGNVPPKANLGDLRGLAGGLNGLNSSAMIDGGDFDGAKAYKDSKVCNMLTMQEFHRRFHEETGVTFASLYPGCIASTGLFREHIPLFRALFPPFQKYITKGYVSETESGKRLAQVVSDPSLTKSGVYWSWNNASASFENQLSEEASDVEKARKVWEISEKLVGLA
B4: FtsH extracellular protease family (FTSH5) (enzyme, UniProt Q9FH02 77-704)
chain: VNEPVQPPAPTITAEAQSPNLSTFGQNVLMTAPNPQAQSSDLPDGTQWRYSEFLNAVKKGKVERVKFSKDGSVLQLTAVDNRRATVIVPNDPDLIDILAMNGVDISVSEGEGGNGLFDFIGNLLFPLLAFGGLFYLFRGGQGGAGGPGGLGGPMDFGRSKSKFQEVPETGVTFGDVAGADQAKLELQEVVDFLKNPDKYTALGAKIPKGCLLVGPPGTGKTLLARAVAGEAGVPFFSCAASEFVELFVGVGASRVRDLFEKAKSKAPCIVFIDEIDAVGRQRGAGMGGGNDEREQTINQLLTEMDGFSGNSGVIVLAATNRPDVLDSALLRPGRFDRQVTVDRPDVAGRVQILKVHSRGKAIGKDVDYEKVARRTPGFTGADLQNLMNEAAILAARRELKEISKDEISDALERIIAGPEKKNAVVSEEKKRLVAYHEAGHALVGALMPEYDPVAKISIIPRGQAGGLTFFAPSEERLESGLYSRSYLENQMAVALGGRVAEEVIFGDENVTTGASNDFMQVSRVARQMVERFGFSKKIGQVAVGGAGGNPFLGQSMSSQKDYSMATADVVDAEVRELVEKAYVRAKEIITTQIDILHKLAQLLIEKETVDGEEFMSLFIDGQAELYVS
B5: Plastid transcriptionally active 16 (PTAC16) (protein, UniProt Q9STF2 20-510)
chain: FNRRKPRLTVWAKQTAFQLGKTKGDDDSEGKQKGKNPFQFDFGKLPDMKSLIPVVTNPSTGLVFGNNRKKDPGTIFVAGATGQAGIRIAQTLLQRGFSVRAGVPDLGAAQDLARVAATYKILSNDEVKRLNAVQSPFQDAESIAKAIGNATKVVVTVGATENGPDAQVSTSDALLVVQAAELAGVSHVAIVYDGTISGSTYNVLDGITSFFGNLFAKSQPLTISDLIEKVAQTDVAYTLIKTSLTEDFSPEKAYNVVVSAEGSNSGSGSSSSEAYKVPKLKIASLVADIFANTAVAENKVVEVSTDPSAPSRPVDELFSVIPEDGRRKVYADAIARERAEEEAKVAADKAREAAEAAKEFEKQMQKLSEKEAEAASLAEDAQQKADAVGVTVDGLFNKAKDISSGLSWNKLGSQFATAIQNASETPKVQVATVRGQAKARNLPPKKAVVKQRPSSPFASKPKEERPKKPEKEVRKVFGGLFKQETIYIDDD
B6: Glutathione S-transferase phi 8 (GST6) (enzyme, UniProt Q96266 50-263)
chain: ASIKVHGVPMSTATMRVLATLYEKDLQFELIPVDMRAGAHKQEAHLALNPFGQIPALEDGDLTLFESRAITQYLAEEYSEKGEKLISQDCKKVKATTNVWLQVEGQQFDPNASKLAFERVFKGMFGMTTDPAAVQELEGKLQKVLDVYEARLAKSEFLAGDSFTLADLHHLPAIHYLLGTDSKVLFDSRPKVSEWIKKISARPAWAKVIDLQKQ
B7: Mitochondrial substrate carrier family protein (protein, UniProt Q9C5M0 1-298)
chain: MAEEKKAPISVWTTVKPFVNGGASGMLATCVIQPIDMIKVRIQLGQGSAASITTNMLKNEGVGAFYKGLSAGLLRQATYTTARLGSFKLLTAKAIESNDGKPLPLYQKALCGLTAGAIGACVGSPADLALIRMQADNTLPLAQRRNYTNAFHALTRISADEGVLALWKGCGPTVVRAMALNMGMLASYDQSAEYMRDNLGFGEMSTVVGASAVSGFCAAACSLPFDFVKTQIQKMQPDAQGKYPYTGSLDCAMKTLKEGGPLKFYSGFPVYCVRIAPHVMMTWIFLNQITKFQKKIGM
B8: Transketolase (enzyme, UniProt Q8RWV0 67-741)
chain: AAVETVEPTTDSSIVDKSVNSIRFLAIDAVEKAKSGHPGLPMGCAPMAHILYDEVMRYNPKNPYWFNRDRFVLSAGHGCMLLYALLHLAGYDSVQEEDLKQFRQWGSKTPGHPENFETPGIEVTTGPLGQGIANAVGLALAEKHLAARFNKPDAEVVDHYTYAILGDGCQMEGISNEACSLAGHWGLGKLIAFYDDNHISIDGDTEIAFTENVDQRFEALGWHVIWVKNGNTGYDEIRAAIKEAKTVTDKPTLIKVTTTIGYGSPNKANSYSVHGAALGEKEVEATRNNLGWPYEPFQVPDDVKSHWSRHTPEGATLESDWSAKFAAYEKKYPEEASELKSIITGELPAGWEKALPTYTPESPGDATRNLSQQCLNALAKVVPGFLGGSADLASSNMTLLKAFGDFQKATPEERNLRFGVREHGMGAICNGIALHSPGLIPYCATFFVFTDYMRGAMRISALSEAGVIYVMTHDSIGLGEDGPTHQPIEHIASFRAMPNTLMFRPADGNETAGAYKIAVTKRKTPSILALSRQKLPHLPGTSIEGVEKGGYTISDDSSGNKPDVILIGTGSELEIAAQAAEVLRKDGKTVRVVSFVCWELFDEQSDEYKESVLPSDVSARVSIEAASTFGWGKIVGGKGKSIGINSFGASAPAPLLYKEFGITVEAVVDAAKSFF
B9: Glyceraldehyde 3-phosphate dehydrogenase A subunit (GAPA) (enzyme, UniProt P25856 61-396)
chain: KLKVAINGFGRIGRNFLRCWHGRKDSPLDIIAINDTGGVKQASHLLKYDSTLGIFDADVKPSGETAISVDGKIIQVVSNRNPSLLPWKELGIDIVIEGTGVFVDREGAGKHIEAGAKKVIITAPGKGDIPTYVVGVNADAYSHDEPIISNASCTTNCLAPFVKVLDQKFGIIKGTMTTTHSYTGDQRLLDASHRDLRRARAAALNIVPTSTGAAKAVALVLPNLKGKLNGIALRVPTPNVSVVDLVVQVSKKTFAEEVNAAFRDSAEKELKGILDVCDEPLVSVDFRCSDFSTTIDSSLTMVMGDDMVKVIAWYDNEWGYSQRVVDLADIVANNWK
B10: Phosphoglycerate kinase 1 (PGK1) (enzyme, UniProt Q9LD57 76-481)
chain: SMAKKSVGDLTSADLKGKKVFVRADLNVPLDDNQTITDDTRIRAAIPTIKYLIENGAKVILSTHLGRPKGVTPKFSLAPLVPRLSELLGIEVTKADDCIGPEVESLVASLPEGGVLLLENVRFYKEEEKNDPEFAKKLASLADLYVNDAFGTAHRAHASTEGVTKFLKPSVAGFLLQKELDYLVGAVSNPKRPFAAIVGGSKVSSKIGVIESLLEKCDILLLGGGMIFTFYKAQGLSVGSSLVEEDKLELATELLAKAKAKGVSLLLPTDVVVADKFAPDANSKIVPASGIEDGWMGLDIGPDSIKTFNEALDTTQTVIWNGPMGVFEMEKFAAGTEAIANKLAELSEKGVTTIIGGGDSVAAVEKVGVAGVMSHISTGGGASLELLEGKVLPGVIALDEAIPVTV

These molecules were tested against T1, pAtPNP-A, N-terminally biotinylated AtPNP-A(33–66) peptide containing the active region of AtPNP-A (Arabidopsis thaliana) (assay: affinity purification with mass spectrometry; N-terminally biotinylated peptide bait incubated 15 min with A. thaliana (Col-0) protein extract, no cross-linker, Dynabeads M-280 for 30 min (biotin-streptavidin), eluate on SDS-PAGE, in-gel trypsin digestion, LC-MS/MS; pScr as negative control; three independent experiments; only the target purified).
“Tubulin/FtsZ family protein (TUA6) (from UniProt P29511 1-450)” was tested, and the binding was “binds”. “ATP synthase subunit alpha (ATPA) (from UniProt P56757 1-507)” was tested, and the binding was “binds”. In the case of “Photosystem I light harvesting complex gene 3 (LHCA3) (from UniProt Q9SY97 40-273)”, the binding is reported as “binds”. In the case of “Eukaryotic translation initiation factor 4A1 (EIF4A1) (from UniProt P41376 1-412)”, the binding is reported as “binds”. With “Actin 8 (ACT8) (from UniProt Q96293 1-377)” the binding was “binds”. For “CLPC homologue 1 (CLPC1) (from UniProt Q9FI56 39-929)”, the binding was “binds”. With “Chaperonin 60 beta (LEN1) (from UniProt P21240 55-600)” the binding was “binds”. “Photosystem I subunit G (PSAG) (from UniProt Q9S7N7 61-160)” was tested, and the binding was “binds”. With “ADP/ATP carrier 1 (AAC1) (from UniProt P31167 71-381)” the binding was “binds”. With “Rieske (2Fe-2S) domain-containing protein (A. thaliana (endogenous in Col-0 plants))” the binding was “binds”. With “Photosystem I subunit F (PSAF) (from UniProt Q9SHE8 68-221)” the binding was “binds”. “Photosystem I light harvesting complex gene 1 (LHCA1) (from UniProt Q01667 36-241)” was tested, and the binding was “binds”. “RAB GTPase homolog E1B (RABE1b) (from UniProt P17745 68-476)” was tested, and the binding was “binds”. With “GTP binding Elongation factor Tu family protein (from UniProt P0DH99 1-449)” the binding was “binds”. In the case of “Actin 7 (ACT7) (from UniProt P53492 1-377)”, the binding is reported as “binds”. “Photosynthetic electron transfer C (PGR1) (from UniProt Q9ZR03 51-229)” was tested, and the binding was “binds”. For B1, the binding was “binds”. B2 was tested, and the binding was “binds”. B3 was tested, and the binding was “binds”. In the case of B4, the binding is reported as “binds”. With B5 the binding was “binds”. For B6, the binding was “binds”. In the case of B7, the binding is reported as “binds”. B8 was tested, and the binding was “binds”. B9 was tested, and the binding was “binds”. For B10, the binding was “binds”.
